Results are given in words; binding and its absence hold for the method and conditions named. Binding seen in cells or lysates may run through a third protein. Some binding calls cover weakened binding; strength is not graded here.

By UniProt entry, the sequences of proteins in these tests, tags left out.
UniProt P03372: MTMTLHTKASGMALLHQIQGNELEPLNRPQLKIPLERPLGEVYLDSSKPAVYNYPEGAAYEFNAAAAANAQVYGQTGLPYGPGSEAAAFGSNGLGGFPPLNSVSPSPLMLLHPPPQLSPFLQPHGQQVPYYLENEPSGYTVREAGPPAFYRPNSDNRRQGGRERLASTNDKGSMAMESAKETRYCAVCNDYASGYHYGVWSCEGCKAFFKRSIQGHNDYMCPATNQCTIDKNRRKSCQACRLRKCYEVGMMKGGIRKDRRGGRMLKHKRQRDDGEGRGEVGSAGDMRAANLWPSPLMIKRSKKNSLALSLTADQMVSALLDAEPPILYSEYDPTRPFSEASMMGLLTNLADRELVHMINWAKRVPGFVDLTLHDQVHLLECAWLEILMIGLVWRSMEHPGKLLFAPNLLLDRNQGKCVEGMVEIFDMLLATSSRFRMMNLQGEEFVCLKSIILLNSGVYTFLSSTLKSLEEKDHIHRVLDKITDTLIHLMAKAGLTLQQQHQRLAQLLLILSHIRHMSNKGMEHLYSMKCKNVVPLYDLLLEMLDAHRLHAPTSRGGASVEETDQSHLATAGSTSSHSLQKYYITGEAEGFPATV

The target in experiment [1] is T1, RNF181 (UniProt Q9P0P0).
T1 sequence: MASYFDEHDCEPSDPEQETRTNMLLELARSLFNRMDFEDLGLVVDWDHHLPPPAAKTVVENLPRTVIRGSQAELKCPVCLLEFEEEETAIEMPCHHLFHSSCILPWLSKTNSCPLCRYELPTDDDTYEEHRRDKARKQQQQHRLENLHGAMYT
Briefly: co-IP; two different immunoprecipitation assays, cells with or without circRNA-SFMBT2 overexpression (Fig. 7L); cell lysate, Protein A/G agarose beads, Western blotting; cells and antibodies not told.

For experiment [2], the target named is T1, RNF181. The experiment in a line: co-IP; immunoprecipitation analysis of RNF181 with ERα and mapping to its AF1 domain (Fig. S4A); cell lysate, Protein A/G agarose beads, washed with NP-40 lysis buffer, Western blotting; cells and antibodies not told. For orientation: Immunoblotting shows a protein as a band on a membrane.

In the case of “Estrogen receptor alpha (ERα) (from UniProt P03372 1-595)”, the binding entry in experiment [1] and in experiment [2] was “binds” in each case.

Source of the values: publication PMC10390580.
